{"source": "patent US6762160B2", "about": "“Composition for removing biofilms comprising a detergent and a salt forming acid” (Universite de Montreal, priority 1998, dated 2004)", "key": {"[1]": {"tested_on": "dental unit waterlines bacteria", "experiment": "Antibacterial activity: growth in R2Am medium after disinfection of tubings;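 note: disinfected tubing pieces kept 7 days at room temperature in R2Am medium, then scored for presence or absence of bacterial growth by absorbance at 590 nm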"}, "[2]": {"tested_on": "mature biofilms on lumen of dental unit waterlines tubings", "experiment": "Biofilm removal from dental unit waterline tubing pieces, binocular microscope 40x, arbitrary scale", "format": "cell-based, dental unit waterlines bacteria", "details": "pH 5", "protocol": "Two-cm long pieces of dental unit waterlines tubings were used. These tubings were taken from functional dental units installed at the faculty of dentistry of the University of Montreal. […] The pieces were sectioned longitudinally with a sterile scalpel blade to expose the biofilm. Another series of tubings was left untouched. Sections of tubings were placed in sterile 5 ml disposable test tubes containing solutions to be tested.\nAfter 1 or 18 hours without agitation at room temperature, tubings were rinsed three times with sterile water."}}, "note": "For some assays here: For at least one compound, name, drawing or mass did not settle the structure. Some of these results come from one statement about several compounds together.", "data": [{"smiles": "CCCCCCCCCCCCCCCC[n+]1ccccc1", "note": "[CPC, Cetylpyridinium chloride]", "values": [{"measurement": "bactericide tried in cleaning solution", "setting": "[1]", "result": "success"}]}, {"smiles": "O=C(O)CCC(=O)C(=O)O", "note": "[2-Ketoglutaric Acid]", "values": [{"measurement": "time within which the acid is performing (biofilm removal)", "setting": "[2]", "result": "less than 1 hour"}]}]}
